Reference: patent publication US12696902B2, “Pesticidal pyrazole and triazole derivatives” (priority 2019, dated 2026)
Some of these results come from one statement about several compounds together.

What was measured:
Assay type in all cases: in vivo
[1] = test system: Boll Weevil (Anthonomus grandis); experiment: Action on boll weevil, egg and larval mortality on insect diet in microtiter plates; conditions: 800 ppm; A. grandis eggs on insect diet; egg and larval mortality after 5 days
[2] = test system: Diamond Back Moth (Plutella xylostella); experiment: Action on diamond back moth, cabbage leaf dip; conditions: 500 ppm; 3rd instar larvae on dipped cabbage leaves; 72 hours after treatment
Method: The active compound is dissolved at the desired concentration in a mixture of 1:1 (v/v) distilled water:acetone. Surfactant (Kinetic® HV) is added at a rate of 0.01% (v/v). The test solution is prepared at the day of use.
Leaves of cabbage were dipped in test solution and air-dried. Treated leaves were placed in petri dishes lined with moist filter paper and inoculated with ten 3rd instar larvae. Mortality was recorded 72 hours after treatment. Feeding damages were also recorded using a scale of 0-100%.

[3] = test system: Silverleaf Whitefly (Bemisia argentifolii) (Adults); experiment: Action on silverleaf whitefly adults on sprayed cotton plants; conditions: 300 ppm, 3 days after treatment
[4] = test system: Orchid Thrips (Dichromothrips corbetti); experiment: Action on orchid thrips, floral-immersion technique; conditions: 500 ppm, adult thrips, 72 hours after treatment
Method: Dichromothrips corbetti adults used for bioassay were obtained from a colony maintained continuously under laboratory conditions. For testing purposes, the test compound is diluted in a 1:1 mixture of acetone:water (vol:vol), plus Kinetic® HV at a rate of 0.01% v/v.
Thrips potency of each compound was evaluated by using a floral-immersion technique. All petals of individual, intact orchid flowers were dipped into treatment solution and allowed to drying Petri dishes. Treated petals were placed into individual re-sealable plastic along with about 20 adult thrips. All test arenas were held under continuous light and a temperature of about 28° C. for duration of the assay. After 3 days, the numbers of live thrips were counted on each petal. The percent mortality was recorded 72 hours after treatment.

[5] = test system: Southern Armyworm (Spodoptera eridania), 2nd Instar Larvae; experiment: Action on southern armyworm 2nd instar larvae on sprayed lima bean plants; conditions: 300 ppm, 4 days after treatment
[6] = test system: Yellow Fever Mosquito (Aedes aegypti); conditions: 800 ppm; freshly hatched A. aegypti larvae; larval mortality visually assessed after 2 days
[7] = test system: Tobacco Budworm (Heliothis virescens); experiment: Action on tobacco budworm, egg and larval mortality on insect diet in microtiter plates; conditions: 800 ppm; H. virescens eggs on insect diet; egg and larval mortality after 5 days

Structure (SMILES) | mortality in comparison with untreated controls [1] | mortality in comparison with untreated controls [2] | mortality in comparison with untreated controls [3] | mortality in comparison with untreated controls [4] | mortality in comparison with untreated controls [5] | mortality in comparison with untreated controls [6] | mortality in comparison with untreated controls [7]
Cc1ccc(C(C)C)c(N=C2SCC(=O)N2N=Cc2ccc(-n3cc(NC(=O)c4ccc(OC(F)(F)F)cc4)c(C)n3)c(F)c2)c1 [Compound C-120] | at least 75% | at least 75% | at least 75% | at least 75% | at least 75% | at least 50% | at least 75%
Cc1ccc(C(C)C)c(N=C2SCC(=O)N2N=Cc2ccc(-n3cc(NC(=O)c4ccc(OC(F)(F)F)cc4)c(C)n3)cc2)c1 [Compound C-111] | at least 75% | at least 75% | at least 75% | at least 75% | at least 75% | at least 50% | at least 75%
Cc1nn(-c2ccc(C=NN3C(=O)CSC3=Nc3ccccc3C(C)C)cc2)cc1N(C)C(=O)c1ccc(OC(F)(F)F)cc1 [Compound C-118] | at least 75% | at least 75% |  | at least 75% | at least 75% | at least 50% | at least 75%
CC(C)c1ccccc1N1C(=O)CS/C1=N\N=C\c1ccc(-n2cc(C(=O)N(C)c3ccc(C(F)(F)F)cc3)cn2)cc1 [Compound C-22] | at least 75% | at least 75% |  | at least 75% | at least 75% | at least 50% | at least 75%
Cc1nn(-c2ccc(C=NN3C(=O)CSC3=Nc3cc(F)ccc3C(C)C)cc2)cc1NC(=O)c1ccc(OC(F)(F)F)cc1 [Compound C-112] | at least 75% | at least 75% |  | at least 75% | at least 75% | at least 50% | at least 75%
Cc1nn(-c2ccc(/C=N/N3C(=O)CS/C3=N\c3ccccc3C(C)C)cc2)cc1NC(=O)c1ccc(OC(F)(F)F)cc1 [Compound C-61] | at least 75% | at least 75% |  | at least 75% | at least 75% | at least 50% | at least 75%
Cc1nn(-c2ccc(C=NNC(=O)Nc3ccccc3C(C)C)cc2)cc1N(C)C(=O)c1ccc(OC(F)(F)F)cc1 [Compound C-116] | at least 75% | at least 75% |  | at least 75% | at least 75% | at least 50% | at least 75%
Cc1nn(-c2ccc(/C=N/N=C3\SCC(=O)N3c3ccccc3C(C)C)cc2)c(C)c1NC(=O)c1ccc(OC(F)(F)F)cc1 [Compound C-47] | at least 75% | at least 75% |  | at least 75% | at least 75% | at least 50% | at least 75%
Cc1ccc(C(C)C)c(N=C2SCC(=O)N2N=Cc2ccc(-n3cc(N(C)C(=O)c4ccc(OC(F)(F)F)cc4)c(C)n3)cc2)c1 [Compound C-119] | at least 75% | at least 75% | at least 75% | at least 75% | at least 75% | at least 50% | at least 75%
CO[C@@H]1[C@@H](OC)[C@H](C)O[C@@H](OC(=O)Nc2ccc(-n3cc(NC(=O)c4ccc(OC(F)(F)F)cc4)c(C)n3)cc2)[C@@H]1OC [Compound C-6, [(2S,3R,4R,5S,6S)—3,4,5-trimethoxy-6-methyl-tetrahydropyran-2-yl] N-[4-[3-methyl-4-[[4-(trifluoromethoxy)benzoyl]amino]pyrazol-1-yl]phenyl] carbamate] | at least 75% | at least 75% |  | at least 75% | at least 75% | at least 50% | at least 75%
Cc1nn(-c2ccc(/C=N/NC(=S)Nc3ccccc3C(C)C)cc2)cc1COc1ccc(OC(F)(F)F)cc1 [Compound C-33] | at least 75% | at least 75% | at least 75% |  | at least 75% | at least 50% | at least 75%
Cc1nn(-c2ccc(/C=N/N3C(=O)CS/C3=N\c3ccccc3C(C)C)cc2)c(C)c1NC(=O)c1ccc(OC(F)(F)F)cc1 [Compound C-48] | at least 75% | at least 75% |  | at least 75% | at least 75% | at least 50% | at least 75%
CCc1nn(-c2ccc(/C=N/NC(=S)Nc3ccccc3C(C)C)cc2)cc1NC(=O)c1ccc(OC(F)(F)F)cc1 [Compound C-56] | at least 75% | at least 75% |  | at least 75% | at least 75% | at least 50% | at least 75%
